Measured values from publication PMC5312288.

The chains behind the UniProt entries cited, without tags or fusion partners. Residues count along the entry.
UniProt P13645: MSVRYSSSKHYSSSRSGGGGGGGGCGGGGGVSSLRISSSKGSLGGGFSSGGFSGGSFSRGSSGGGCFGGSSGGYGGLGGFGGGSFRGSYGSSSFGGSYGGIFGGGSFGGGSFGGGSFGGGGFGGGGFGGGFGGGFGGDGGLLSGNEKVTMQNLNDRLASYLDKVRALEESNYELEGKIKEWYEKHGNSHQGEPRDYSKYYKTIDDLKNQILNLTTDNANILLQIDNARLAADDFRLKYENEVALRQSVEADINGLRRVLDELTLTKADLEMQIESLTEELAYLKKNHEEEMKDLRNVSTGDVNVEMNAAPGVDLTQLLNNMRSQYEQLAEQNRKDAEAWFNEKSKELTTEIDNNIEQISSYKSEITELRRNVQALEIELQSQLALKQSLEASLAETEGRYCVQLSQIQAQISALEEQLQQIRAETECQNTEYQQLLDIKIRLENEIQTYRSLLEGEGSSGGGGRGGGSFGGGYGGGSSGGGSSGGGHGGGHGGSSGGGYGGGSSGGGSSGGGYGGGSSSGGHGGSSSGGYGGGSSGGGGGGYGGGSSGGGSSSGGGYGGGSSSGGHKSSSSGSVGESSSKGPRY
UniProt P07355: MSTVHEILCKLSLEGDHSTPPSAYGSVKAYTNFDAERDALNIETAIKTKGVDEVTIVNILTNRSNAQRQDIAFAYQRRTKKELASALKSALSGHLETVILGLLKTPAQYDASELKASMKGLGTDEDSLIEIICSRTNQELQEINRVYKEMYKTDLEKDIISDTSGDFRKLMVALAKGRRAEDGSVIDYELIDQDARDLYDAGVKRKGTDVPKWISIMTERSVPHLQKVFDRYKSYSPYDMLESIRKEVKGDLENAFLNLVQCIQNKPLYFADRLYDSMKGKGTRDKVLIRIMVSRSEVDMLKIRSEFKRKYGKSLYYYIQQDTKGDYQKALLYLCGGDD
UniProt P06748: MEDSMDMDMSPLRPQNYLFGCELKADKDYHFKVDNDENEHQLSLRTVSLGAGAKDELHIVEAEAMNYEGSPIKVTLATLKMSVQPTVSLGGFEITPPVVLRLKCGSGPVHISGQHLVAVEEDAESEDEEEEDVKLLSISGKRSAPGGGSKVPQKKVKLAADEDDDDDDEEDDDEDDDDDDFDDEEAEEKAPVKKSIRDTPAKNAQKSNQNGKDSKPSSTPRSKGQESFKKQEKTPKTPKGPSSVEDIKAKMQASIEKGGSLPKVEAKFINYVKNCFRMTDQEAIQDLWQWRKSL
UniProt P08238: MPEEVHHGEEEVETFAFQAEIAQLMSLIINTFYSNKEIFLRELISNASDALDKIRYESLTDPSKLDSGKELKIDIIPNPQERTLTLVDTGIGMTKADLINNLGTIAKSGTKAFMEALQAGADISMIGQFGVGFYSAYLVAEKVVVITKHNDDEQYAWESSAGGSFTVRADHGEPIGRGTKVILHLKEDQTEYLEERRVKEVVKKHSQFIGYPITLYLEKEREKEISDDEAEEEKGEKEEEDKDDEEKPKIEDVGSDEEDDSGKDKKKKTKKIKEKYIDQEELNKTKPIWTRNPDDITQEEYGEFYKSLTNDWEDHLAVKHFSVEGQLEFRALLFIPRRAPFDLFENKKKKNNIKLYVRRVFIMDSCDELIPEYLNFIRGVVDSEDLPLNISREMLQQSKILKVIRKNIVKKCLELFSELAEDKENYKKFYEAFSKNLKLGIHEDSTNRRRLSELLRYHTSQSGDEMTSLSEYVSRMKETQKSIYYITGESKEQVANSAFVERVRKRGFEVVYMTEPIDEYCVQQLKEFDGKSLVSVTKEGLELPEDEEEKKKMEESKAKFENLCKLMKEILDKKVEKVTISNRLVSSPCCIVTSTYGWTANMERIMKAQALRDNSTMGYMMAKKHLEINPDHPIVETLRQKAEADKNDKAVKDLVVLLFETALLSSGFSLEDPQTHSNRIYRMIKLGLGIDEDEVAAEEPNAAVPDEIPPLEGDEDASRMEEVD
UniProt P14625, residues 22-803: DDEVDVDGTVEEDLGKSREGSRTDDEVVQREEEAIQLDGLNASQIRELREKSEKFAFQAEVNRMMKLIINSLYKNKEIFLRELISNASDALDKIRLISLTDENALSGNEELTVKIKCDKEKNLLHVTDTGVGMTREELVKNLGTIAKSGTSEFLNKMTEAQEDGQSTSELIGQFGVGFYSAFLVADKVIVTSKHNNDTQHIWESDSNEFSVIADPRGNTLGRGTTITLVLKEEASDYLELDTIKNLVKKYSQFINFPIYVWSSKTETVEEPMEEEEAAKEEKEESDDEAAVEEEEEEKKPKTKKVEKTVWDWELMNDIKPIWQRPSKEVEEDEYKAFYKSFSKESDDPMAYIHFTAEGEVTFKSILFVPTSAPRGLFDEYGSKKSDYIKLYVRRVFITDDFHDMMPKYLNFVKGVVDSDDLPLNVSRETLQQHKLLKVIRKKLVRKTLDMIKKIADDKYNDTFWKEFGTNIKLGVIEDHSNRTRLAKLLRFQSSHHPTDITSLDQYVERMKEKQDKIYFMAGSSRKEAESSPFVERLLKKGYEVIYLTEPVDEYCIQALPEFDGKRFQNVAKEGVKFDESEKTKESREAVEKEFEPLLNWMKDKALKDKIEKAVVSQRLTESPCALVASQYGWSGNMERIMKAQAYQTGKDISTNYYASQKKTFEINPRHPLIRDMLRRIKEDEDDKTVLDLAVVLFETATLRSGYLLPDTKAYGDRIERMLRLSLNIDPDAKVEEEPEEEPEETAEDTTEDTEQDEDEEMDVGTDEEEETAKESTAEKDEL
UniProt P11021, residues 19-654: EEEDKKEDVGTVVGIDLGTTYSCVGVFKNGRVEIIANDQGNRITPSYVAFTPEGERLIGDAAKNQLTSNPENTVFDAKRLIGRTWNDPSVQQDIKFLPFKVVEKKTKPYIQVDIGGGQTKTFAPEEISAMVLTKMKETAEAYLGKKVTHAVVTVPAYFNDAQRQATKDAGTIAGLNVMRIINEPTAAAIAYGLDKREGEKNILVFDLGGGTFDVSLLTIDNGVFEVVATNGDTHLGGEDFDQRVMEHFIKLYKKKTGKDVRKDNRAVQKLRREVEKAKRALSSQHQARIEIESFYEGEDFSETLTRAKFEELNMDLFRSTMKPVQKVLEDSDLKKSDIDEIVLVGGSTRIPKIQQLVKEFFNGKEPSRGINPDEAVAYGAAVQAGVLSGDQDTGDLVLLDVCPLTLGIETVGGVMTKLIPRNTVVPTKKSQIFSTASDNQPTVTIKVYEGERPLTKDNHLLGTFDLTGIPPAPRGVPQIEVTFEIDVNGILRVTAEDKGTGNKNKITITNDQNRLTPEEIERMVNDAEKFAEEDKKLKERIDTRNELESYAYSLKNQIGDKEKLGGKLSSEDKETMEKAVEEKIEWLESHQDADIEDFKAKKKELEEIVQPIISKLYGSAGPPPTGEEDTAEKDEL
UniProt P10809, residues 27-573: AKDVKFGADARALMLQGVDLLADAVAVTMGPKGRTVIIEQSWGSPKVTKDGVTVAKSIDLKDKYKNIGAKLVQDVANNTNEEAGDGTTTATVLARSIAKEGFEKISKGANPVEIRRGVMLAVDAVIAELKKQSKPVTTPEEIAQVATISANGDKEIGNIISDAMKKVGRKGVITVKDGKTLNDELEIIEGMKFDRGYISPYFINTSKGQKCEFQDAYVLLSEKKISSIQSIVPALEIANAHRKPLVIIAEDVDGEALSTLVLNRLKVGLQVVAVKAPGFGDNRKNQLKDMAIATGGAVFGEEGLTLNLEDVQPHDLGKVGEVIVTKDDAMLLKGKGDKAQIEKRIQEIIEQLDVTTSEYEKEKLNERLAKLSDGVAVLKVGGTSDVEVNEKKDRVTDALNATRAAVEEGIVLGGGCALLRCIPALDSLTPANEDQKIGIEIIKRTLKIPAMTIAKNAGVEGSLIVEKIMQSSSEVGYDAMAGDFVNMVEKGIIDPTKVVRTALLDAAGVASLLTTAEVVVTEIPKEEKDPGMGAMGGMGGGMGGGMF
UniProt P04406: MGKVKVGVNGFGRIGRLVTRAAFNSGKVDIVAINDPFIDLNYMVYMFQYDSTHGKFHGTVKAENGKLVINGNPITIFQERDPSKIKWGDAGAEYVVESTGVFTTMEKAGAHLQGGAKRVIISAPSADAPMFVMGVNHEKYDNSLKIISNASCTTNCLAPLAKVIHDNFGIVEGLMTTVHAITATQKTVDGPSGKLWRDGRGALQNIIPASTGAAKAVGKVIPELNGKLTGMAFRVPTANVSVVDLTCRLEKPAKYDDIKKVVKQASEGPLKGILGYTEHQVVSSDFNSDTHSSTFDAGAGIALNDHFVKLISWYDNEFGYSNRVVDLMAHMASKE
UniProt P38646, residues 47-679: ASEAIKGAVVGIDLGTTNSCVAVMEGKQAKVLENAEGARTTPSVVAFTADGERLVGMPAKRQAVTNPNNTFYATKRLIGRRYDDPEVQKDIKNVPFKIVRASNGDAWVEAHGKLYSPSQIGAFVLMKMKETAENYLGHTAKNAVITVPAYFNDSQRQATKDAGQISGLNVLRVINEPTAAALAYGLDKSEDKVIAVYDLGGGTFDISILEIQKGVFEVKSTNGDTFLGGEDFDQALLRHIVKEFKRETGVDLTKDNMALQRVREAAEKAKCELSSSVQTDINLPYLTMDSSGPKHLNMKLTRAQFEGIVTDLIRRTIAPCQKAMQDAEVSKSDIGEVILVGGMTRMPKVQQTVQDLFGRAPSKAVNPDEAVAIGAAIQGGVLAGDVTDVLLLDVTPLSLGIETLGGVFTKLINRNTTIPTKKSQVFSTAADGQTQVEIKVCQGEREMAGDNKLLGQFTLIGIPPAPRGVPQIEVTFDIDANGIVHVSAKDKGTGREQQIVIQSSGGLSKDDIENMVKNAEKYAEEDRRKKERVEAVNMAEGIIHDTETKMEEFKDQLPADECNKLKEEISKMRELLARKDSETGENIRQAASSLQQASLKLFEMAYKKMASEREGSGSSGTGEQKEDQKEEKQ
UniProt Q00610: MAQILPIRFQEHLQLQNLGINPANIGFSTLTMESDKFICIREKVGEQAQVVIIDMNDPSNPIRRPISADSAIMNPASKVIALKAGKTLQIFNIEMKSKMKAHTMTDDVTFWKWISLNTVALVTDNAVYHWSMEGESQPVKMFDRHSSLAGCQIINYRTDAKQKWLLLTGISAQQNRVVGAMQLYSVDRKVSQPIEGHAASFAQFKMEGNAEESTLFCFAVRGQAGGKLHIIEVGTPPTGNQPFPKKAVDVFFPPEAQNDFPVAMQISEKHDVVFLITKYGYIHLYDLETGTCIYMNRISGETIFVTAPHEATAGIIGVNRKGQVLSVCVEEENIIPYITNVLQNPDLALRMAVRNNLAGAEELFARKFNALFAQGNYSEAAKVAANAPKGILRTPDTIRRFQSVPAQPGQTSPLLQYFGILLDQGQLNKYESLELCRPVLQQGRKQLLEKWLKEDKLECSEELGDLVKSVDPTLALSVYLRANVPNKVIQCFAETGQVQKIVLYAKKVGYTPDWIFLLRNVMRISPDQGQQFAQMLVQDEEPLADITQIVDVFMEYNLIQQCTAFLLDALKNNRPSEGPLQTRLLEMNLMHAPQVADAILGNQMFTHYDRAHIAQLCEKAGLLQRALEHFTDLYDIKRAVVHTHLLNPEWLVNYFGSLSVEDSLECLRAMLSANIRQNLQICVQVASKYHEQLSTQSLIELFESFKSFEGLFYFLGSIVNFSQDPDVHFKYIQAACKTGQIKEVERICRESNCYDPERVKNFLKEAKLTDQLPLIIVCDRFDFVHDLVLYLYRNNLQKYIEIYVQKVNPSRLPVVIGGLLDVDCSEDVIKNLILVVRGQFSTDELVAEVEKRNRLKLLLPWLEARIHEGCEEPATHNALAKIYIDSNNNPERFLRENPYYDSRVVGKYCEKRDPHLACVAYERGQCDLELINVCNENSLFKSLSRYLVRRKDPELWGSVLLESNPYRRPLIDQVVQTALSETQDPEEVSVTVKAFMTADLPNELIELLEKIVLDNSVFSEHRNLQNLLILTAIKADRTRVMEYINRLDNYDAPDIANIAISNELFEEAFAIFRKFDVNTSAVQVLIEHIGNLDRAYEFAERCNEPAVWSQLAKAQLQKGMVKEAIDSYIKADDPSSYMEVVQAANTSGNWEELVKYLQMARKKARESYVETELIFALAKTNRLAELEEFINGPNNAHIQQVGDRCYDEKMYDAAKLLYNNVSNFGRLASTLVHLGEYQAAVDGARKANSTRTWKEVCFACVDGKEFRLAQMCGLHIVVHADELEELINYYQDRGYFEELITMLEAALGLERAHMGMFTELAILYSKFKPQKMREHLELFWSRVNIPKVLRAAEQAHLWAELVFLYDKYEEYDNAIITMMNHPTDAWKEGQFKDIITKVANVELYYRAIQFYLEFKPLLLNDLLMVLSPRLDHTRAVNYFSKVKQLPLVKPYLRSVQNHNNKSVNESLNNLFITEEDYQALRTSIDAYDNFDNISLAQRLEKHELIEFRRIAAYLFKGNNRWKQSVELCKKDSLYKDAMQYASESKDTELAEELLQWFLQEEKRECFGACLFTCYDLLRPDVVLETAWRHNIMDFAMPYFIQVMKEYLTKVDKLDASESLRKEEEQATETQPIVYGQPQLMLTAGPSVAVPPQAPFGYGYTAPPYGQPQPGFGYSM

T1: Osteoprotegerin (human (endogenous in HMEC, SUM149PT, SUM1315MO2)) (UniProt O00300)
T1 sequence: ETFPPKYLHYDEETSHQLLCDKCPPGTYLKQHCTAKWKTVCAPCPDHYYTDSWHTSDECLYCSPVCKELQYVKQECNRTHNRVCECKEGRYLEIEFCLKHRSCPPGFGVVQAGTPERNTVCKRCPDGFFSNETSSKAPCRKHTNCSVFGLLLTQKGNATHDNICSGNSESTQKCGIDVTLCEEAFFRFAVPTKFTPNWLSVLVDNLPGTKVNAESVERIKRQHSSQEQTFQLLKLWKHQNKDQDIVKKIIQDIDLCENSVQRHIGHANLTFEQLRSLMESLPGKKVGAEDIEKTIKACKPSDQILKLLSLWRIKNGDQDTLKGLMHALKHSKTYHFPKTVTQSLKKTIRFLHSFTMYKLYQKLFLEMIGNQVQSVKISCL


Target: T1, Osteoprotegerin (human (endogenous in HMEC, SUM149PT, SUM1315MO2))
Test: affinity purification with mass spectrometry; lysates of HMEC, SUM149PT and SUM1315MO2 cells immunoprecipitated with anti-OPG antibody; SDS-PAGE; 17 gel bands analysed by LC-ESI-MS

Row | binding | Molecule
1 | binds | Alpha actinin 3 (from UniProt Q08043 1-901)
2 | binds | Keratin 10 (from UniProt P13645 1-584)
3 | binds | Glutamyl-prolyl-tRNA synthetase (from UniProt P07814 1-1512) (enzyme)
4 | binds | Alpha actinin 2 (from UniProt P35609 1-894)
5 | binds | Annexin A2 (from UniProt P07355 1-339)
6 | binds | NPM1 protein (from UniProt P06748 1-294)
7 | binds | Alpha-actinin 4 (from UniProt O43707 1-911)
8 | binds | Valosin-containing protein (from UniProt P55072 1-806) (enzyme)
9 | binds | HSP90AB1 protein (from UniProt P08238 1-724)
10 | binds | Isoleucine-tRNA synthetase (enzyme)
11 | binds | Proliferation-inducing protein 44
12 | binds | Heat shock protein gp96 precursor (from UniProt P14625 22-803)
13 | binds | Myosin-9 (from UniProt P35579 1-1960)
14 | binds | BiP protein (from UniProt P11021 19-654)
15 | binds | Ribosome-binding protein 1 (protein, UniProt Q9P2E9 1-1410) MDIYDTQTLGVVVFGGFMVVSAIGIFLVSTFSMKETSYEEALANQRKEMAKTHHQKVEKKKKEKTVEKKGKTKKKEEKPNGKIPDHDPAPNVTVLLREPVRAPAVAVAPTPVQPPIIVAPVATVPAMPQEKLASSPKDKKKKEKKVAKVEPAVSSVVNSIQVLTSKAAILETAPKEVPMVVVPPVGAKGNTPATGTTQGKKAEGTQNQSKKAEGAPNQGRKAEGTPNQGKKTEGTPNQGKKAEGTPNQGKKAEGTPNQGKKAEGAQNQGKKVDTTPNQGKKVEGAPTQGRKAEGAQNQAKKVEGAQNQGKKAEGAQNQGKKGEGAQNQGKKAEGAQNQGKKAEGAQNQGKKAEGAQNQGKKAEGAQNQGKKAEGAQNQGKKAEGAQNQGKKVEGAQNQGKKAEGAQNQGKKAEGAQNQGKKAEGAQNQGKKAEGAQNQGKKAEGAQNQGKKAEGAQNQGKKAEGAQNQGKKVEGAQNQGKKAEGAQNQGKKAEGAQNQGKKAEGAQNQGQKGEGAQNQGKKTEGAQGKKAERSPNQGKKGEGAPIQGKKADSVANQGTKVEGITNQGKKAEGSPSEGKKAEGSPNQGKKADAAANQGKKTESASVQGRNTDVAQSPEAPKQEAPAKKKSGSKKKGEPGPPDADGPLYLPYKTLVSTVGSMVFNEGEAQRLIEILSEKAGIIQDTWHKATQKGDPVAILKRQLEEKEKLLATEQEDAAVAKSKLRELNKEMAAEKAKAAAGEAKVKKQLVAREQEITAVQARMQASYREHVKEVQQLQGKIRTLQEQLENGPNTQLARLQQENSILRDALNQATSQVESKQNAELAKLRQELSKVSKELVEKSEAVRQDEQQRKALEAKAAAFEKQVLQLQASHRESEEALQKRLDEVSRELCHTQSSHASLRADAEKAQEQQQQMAELHSKLQSSEAEVRSKCEELSGLHGQLQEARAENSQLTERIRSIEALLEAGQARDAQDVQASQAEADQQQTRLKELESQVSGLEKEAIELREAVEQQKVKNNDLREKNWKAMEALATAEQACKEKLLSLTQAKEESEKQLCLIEAQTMEALLALLPELSVLAQQNYTEWLQDLKEKGPTLLKHPPAPAEPSSDLASKLREAEETQSTLQAECDQYRSILAETEGMLRDLQKSVEEEEQVWRAKVGAAEEELQKSRVTVKHLEEIVEKLKGELESSDQVREHTSHLEAELEKHMAAASAECQNYAKEVAGLRQLLLESQSQLDAAKSEAQKQSDELALVRQQLSEMKSHVEDGDIAGAPASSPEAPPAEQDPVQLKTQLEWTEAILEDEQTQRQKLTAEFEEAQTSACRLQEELEKLRTAGPLESSETEEASQLKERLEKEKKLTSDLGRAATRLQELLKTTQEQLAREKDTVKKLQEQLEKAEDGSSSKEGTSV

Continued, molecule first:

Row | Molecule | binding
16 | POTE ankyrin domain family member F (from UniProt A5A3E0 1-1075) | binds
17 | Heat shock 60kDa protein 1 (chaperonin) (from UniProt P10809 27-573) | binds
18 | Glyceraldehyde-3-phosphate dehydrogenase (from UniProt P04406 1-335) (enzyme) | binds
19 | Heat shock 70kDa protein 9 (mortalin) (from UniProt P38646 47-679) | binds
20 | Clathrin heavy chain 1 (from UniProt Q00610 1-1675) | binds
21 | Fibrinogen betaB (from UniProt P02675 31-491) | binds
22 | Fibrinopeptide B (from UniProt P02675 31-44) | binds
23 | Ras GTPase-activating-like protein IQGAP1 (from UniProt P46940 1-1657) | binds
24 | Filamin A (from UniProt P21333 1-2647) | binds
25 | Glutaminyl-tRNA synthetase (enzyme, UniProt P47897 1-775) MAALDSLSLFTSLGLSEQKARETLKNSALSAQLREAATQAQQTLGSTIDKATGILLYGLASRLRDTRRLSFLVSYIASKKIHTEPQLSAALEYVRSHPLDPIDTVDFERECGVGVIVTPEQIEEAVEAAINRHRPQLLVERYHFNMGLLMGEARAVLKWADGKMIKNEVDMQVLHLLGPKLEADLEKKFKVAKARLEETDRRTAKDVVENGETADQTLSLMEQLRGEALKFHKPGENYKTPGYVVTPHTMNLLKQHLEITGGQVRTRFPPEPNGILHIGHAKAINFNFGYAKANNGICFLRFDDTNPEKEEAKFFTAICDMVAWLGYTPYKVTYASDYFDQLYAWAVELIRRGLAYVCHQRGEELKGHNTLPSPWRDRPMEESLLLFEAMRKGKFSEGEATLRMKLVMEDGKMDPVAYRVKYTPHHRTGDKWCIYPTYDYTHCLCDSIEHITHSLCTKEFQARRSSYFWLCNALDVYCPVQWEYGRLNLHYAVVSKRKILQLVATGAVRDWDDPRLFTLTALRRRGFPPEAINNFCARVGVTVAQTTMEPHLLEACVRDVLNDTAPRAMAVLESLRVIITNFPAAKSLDIQVPNFPADETKGFHQVPFAPIVFIERTDFKEEPEPGFKRLAWGQPVGLRHTGYVIELQHVVKGPSGCVESLEVTCRRADAGEKPKAFIHWVSQPLMCEVRLYERLFQHKNPEDPTEVPGGFLSDLNLASLHVVDAALVDCSVALAKPFDKFQFERLGYFSVDPDSHQGKLVFNRTVTLKEDPGKV | binds

Results are given in words; binding and its absence hold for the method and conditions named. In cells and extracts the contact can be indirect. A yes stands for co-enrichment or nearness to the bait. Other partners may have been found.
